Assay [1] addresses T1, USP36^81–461 (catalytic domain, longer construct) (human, UniProt Q9P275 81-461).
T1 construct: also called recombinant USP36; source: E. coli Rosetta2(DE3)pLacI, purified (HisTrap, 3C cleavage, cation exchange)
T1 sequence (looked up): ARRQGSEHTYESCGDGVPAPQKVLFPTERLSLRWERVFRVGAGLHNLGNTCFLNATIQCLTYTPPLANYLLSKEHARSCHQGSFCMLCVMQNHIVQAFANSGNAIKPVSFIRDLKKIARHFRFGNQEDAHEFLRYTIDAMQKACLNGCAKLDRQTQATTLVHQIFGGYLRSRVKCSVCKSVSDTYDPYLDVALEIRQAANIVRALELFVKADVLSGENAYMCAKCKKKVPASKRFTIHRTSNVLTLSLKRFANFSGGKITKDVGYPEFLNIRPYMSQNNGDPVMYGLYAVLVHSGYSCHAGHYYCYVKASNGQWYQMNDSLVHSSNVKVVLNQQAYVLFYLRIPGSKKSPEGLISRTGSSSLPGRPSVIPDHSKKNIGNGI
In words: activity-based probe labelling (covalent conjugate), SDS-PAGE; purified protease 2.5 µM and probe 10 µM, 1 h at 37 °C; 20 mM Tris pH 8.0, 300 mM NaCl, 2 mM DTT, 5% glycerol; SDS-PAGE and Coomassie staining. As to conditions: both partners purified.

Assay [2] deals with T2, USP16^191–823 (catalytic domain) (human, UniProt Q9Y5T5 191-823).
T2 construct: USP16, human, catalytic domain, residues 191-823; also called recombinant USP16; source: E. coli Rosetta2(DE3)pLacI, purified (HisTrap, 3C cleavage, reverse Ni-NTA, anion exchange, SEC)
T2 sequence (looked up): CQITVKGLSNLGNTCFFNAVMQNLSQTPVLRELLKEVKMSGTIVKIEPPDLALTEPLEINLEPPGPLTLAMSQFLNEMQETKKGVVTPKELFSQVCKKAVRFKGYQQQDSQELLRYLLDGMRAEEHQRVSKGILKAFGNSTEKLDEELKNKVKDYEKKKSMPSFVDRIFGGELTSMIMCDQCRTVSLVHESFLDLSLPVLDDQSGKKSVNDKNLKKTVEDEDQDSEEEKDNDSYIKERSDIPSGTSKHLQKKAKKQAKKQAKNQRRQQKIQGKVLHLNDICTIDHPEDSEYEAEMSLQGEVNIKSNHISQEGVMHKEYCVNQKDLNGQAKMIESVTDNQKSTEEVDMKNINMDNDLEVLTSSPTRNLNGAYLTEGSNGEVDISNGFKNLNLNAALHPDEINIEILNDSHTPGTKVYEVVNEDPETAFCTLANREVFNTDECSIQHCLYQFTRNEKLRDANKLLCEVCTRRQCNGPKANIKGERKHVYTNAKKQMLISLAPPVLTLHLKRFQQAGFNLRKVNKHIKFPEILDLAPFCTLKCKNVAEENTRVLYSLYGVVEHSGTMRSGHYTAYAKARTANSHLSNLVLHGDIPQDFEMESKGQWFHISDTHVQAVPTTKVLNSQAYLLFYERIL
Described as above. As to conditions: both partners purified.

B1: Fubi-PA V40R P47Q (other, human, UniProt P62861 1-73, looked up)
chain: MQLFVRAQELHTFEVTGQETVAQIKAHVASLEGIAPEDQRVLLAGAQLEDEATLGQCGVEALTTLEVAGRMLG
modifications: C-terminal propargylamine (PA) warhead
notes: Fubi, human, residues 1-73; also called probe that restores the more polar Ile 44 environment (V40R and P47Q); source: E. coli Rosetta2(DE3)pLacI, intein fusion, MesNa thioester, reacted with propargylamine, purified
In the case of B1, the binding result in assay [1] and in assay [2] was “binds” in each case.
